# Results: the supplement of paper PMC8728848
# This is one part of the list.
# B1: pTFF2 (Sus scrofa), P01359 (protein)
# chain: KPAACRCSRQDPKNRVNCGFPGITSDQCFTSGCCFDSQVPGVPWCFKPLPAQESEECVMEVSARKNCGYPGISPEDCAARNCCFSDTIPEVPWCFFPMSVEACHY
# Experiments:
# Test in all cases: glycan array binding signal (z-score within array); higher = stronger binding
# Settings in all cases: glycan notation: IUPAC condensed, linker removed
# Gal6S(b1-4)Glc = biological target: Gal6S(b1-4)Glc
# How it was run: (§1)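 Glycan array data were curated from 3228 arrays in the Consortium for Functional Glycomics database and kept only where the protein sequence was available. Glycan names were converted to IUPAC-condensed notation, and columns mapping to the same glycan were averaged. The binding signal is a within-array Z-score, averaged across arrays of the same protein sequence at different concentrations or buffers and across linkers. Negative Z-scores can be read as non-binding.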
# Gal6S(b1-4)Glc6S = biological target: Gal6S(b1-4)Glc6S
# How it was run: as §1
# Gal6S(b1-4)GlcNAc = biological target: Gal6S(b1-4)GlcNAc
# How it was run: as §1
# Gal6S(b1-4)GlcNAc6S = biological target: Gal6S(b1-4)GlcNAc6S
# How it was run: as §1
# GalNAc(a1-3)Gal = biological target: GalNAc(a1-3)Gal
# How it was run: as §1
# GalNAc(a1-3)GalNAc = biological target: GalNAc(a1-3)GalNAc
# How it was run: as §1
# [1] = biological target: GalNAc(a1-3)GalNAc(b1-3)Gal(a1-4)Gal(b1-4)Glc
# How it was run: as §1
# [2] = biological target: GalNAc(a1-3)GalNAc(b1-3)Gal(a1-4)Gal(b1-4)GlcNAc
# How it was run: as §1
# GalNAc(b1-3)Gal = biological target: GalNAc(b1-3)Gal
# How it was run: as §1
# [3] = biological target: GalNAc(b1-3)Gal(a1-4)Gal(b1-4)GlcNAc
# How it was run: as §1
# [4] = biological target: GalNAc(b1-3)Gal(a1-4)Gal(b1-4)GlcNAc(b1-3)Gal(b1-4)Glc
# How it was run: as §1
# [5] = biological target: GalNAc(b1-3)Gal(a1-6)Gal(b1-4)Glc
# How it was run: as §1
# GalNAc(b1-3)GalNAc = biological target: GalNAc(b1-3)GalNAc
# How it was run: as §1
# GalNAc(b1-3)GlcNAc = biological target: GalNAc(b1-3)GlcNAc
# How it was run: as §1
# GalNAc(b1-4)Gal(b1-4)Glc = biological target: GalNAc(b1-4)Gal(b1-4)Glc
# How it was run: as §1
# GalNAc(b1-4)GlcNAc = biological target: GalNAc(b1-4)GlcNAc
# How it was run: as §1
# [6] = biological target: GalNAc(b1-4)GlcNAc(b1-2)Man
# How it was run: as §1
# [7] = biological target: GalNAc(b1-4)GlcNAc(b1-2)Man(a1-3)[GalNAc(b1-4)GlcNAc(b1-2)Man(a1-6)]Man(b1-4)GlcNAc(b1-4)GlcNAc
# How it was run: as §1
# [8] = biological target: GalNAc(b1-4)GlcNAc(b1-3)GalNAc(b1-4)GlcNAc
# How it was run: as §1
# GalNAc(b1-4)GlcNAc6S = biological target: GalNAc(b1-4)GlcNAc6S
# How it was run: as §1
# GalNAc(b1-6)GalNAc = biological target: GalNAc(b1-6)GalNAc
# How it was run: as §1
# GalNAc3S(b1-4)GlcNAc = biological target: GalNAc3S(b1-4)GlcNAc
# How it was run: as §1
# GalNAc3S(b1-4)GlcNAc3S = biological target: GalNAc3S(b1-4)GlcNAc3S
# How it was run: as §1
# [9] = biological target: GalNAc3S(b1-4)[Fuc(a1-3)]GlcNAc
# How it was run: as §1
# GalNAc4S6S(b1-4)GlcNAc = biological target: GalNAc4S6S(b1-4)GlcNAc
# How it was run: as §1
# GalNAc6S(b1-4)GlcNAc = biological target: GalNAc6S(b1-4)GlcNAc
# How it was run: as §1
# Glc(a1-4)Glc = biological target: Glc(a1-4)Glc
# How it was run: as §1
# [10] = biological target: Glc(a1-4)Glc(a1-4)Glc(a1-4)Glc
# How it was run: as §1
# Glc(a1-6)Glc(a1-6)Glc = biological target: Glc(a1-6)Glc(a1-6)Glc
# How it was run: as §1
# [11] = biological target: Glc(a1-6)Glc(a1-6)Glc(a1-6)Glc
# How it was run: as §1
# Glc(b1-4)Glc = biological target: Glc(b1-4)Glc
# How it was run: as §1
# Glc(b1-6)Glc = biological target: Glc(b1-6)Glc
# How it was run: as §1
# GlcA(b1-3)Gal = biological target: GlcA(b1-3)Gal
# How it was run: as §1
# GlcA(b1-3)GlcNAc = biological target: GlcA(b1-3)GlcNAc
# How it was run: as §1
# GlcA(b1-6)Gal = biological target: GlcA(b1-6)Gal
# How it was run: as §1
# [12] = biological target: GlcA3S(b1-3)Gal(b1-4)GlcNAc(b1-2)Man
# How it was run: as §1
# [13] = biological target: GlcA3S(b1-3)Gal(b1-4)GlcNAc(b1-3)Gal(b1-4)Glc
# How it was run: as §1
# [14] = biological target: GlcNAc(a1-3)Gal(b1-4)GlcNAc
# How it was run: as §1
# [15] = biological target: GlcNAc(a1-4)Gal(b1-3)GlcNAc
# How it was run: as §1
# [16] = biological target: GlcNAc(a1-4)Gal(b1-4)GalNAc
# How it was run: as §1
# [17] = biological target: GlcNAc(a1-4)Gal(b1-4)GlcNAc
# How it was run: as §1
# [18] = biological target: GlcNAc(a1-4)Gal(b1-4)GlcNAc(b1-3)Gal(b1-4)Glc
# How it was run: as §1
# [19] = biological target: GlcNAc(a1-4)Gal(b1-4)GlcNAc(b1-3)Gal(b1-4)GlcNAc
# How it was run: as §1
# [20] = biological target: GlcNAc(a1-4)Gal(b1-4)GlcNAc(b1-3)Gal(b1-4)GlcNAc(b1-3)Gal(b1-4)GlcNAc
# How it was run: as §1
# [21] = biological target: GlcNAc(a1-4)Gal(b1-4)GlcNAc(b1-3)Gal(b1-4)[Fuc(a1-3)]GlcNAc(b1-3)Gal(b1-4)[Fuc(a1-3)]GlcNAc
# How it was run: as §1
binder,measurement,setting,value
B1,glycan array binding signal (z-score),Gal6S(b1-4)Glc,0.077
same,glycan array binding signal (z-score),Gal6S(b1-4)Glc6S,0.749
same,glycan array binding signal (z-score),Gal6S(b1-4)GlcNAc,-1.92
same,glycan array binding signal (z-score),Gal6S(b1-4)GlcNAc6S,0.285
same,glycan array binding signal (z-score),GalNAc(a1-3)Gal,1.15
same,glycan array binding signal (z-score),GalNAc(a1-3)GalNAc,-0.358
same,glycan array binding signal (z-score),[1],-0.118
same,glycan array binding signal (z-score),[2],-0.816
same,glycan array binding signal (z-score),GalNAc(b1-3)Gal,0.164
same,glycan array binding signal (z-score),[3],-0.4
same,glycan array binding signal (z-score),[4],-0.07
same,glycan array binding signal (z-score),[5],-1
same,glycan array binding signal (z-score),GalNAc(b1-3)GalNAc,0.308
same,glycan array binding signal (z-score),GalNAc(b1-3)GlcNAc,0.736
same,glycan array binding signal (z-score),GalNAc(b1-4)Gal(b1-4)Glc,4.38
same,glycan array binding signal (z-score),GalNAc(b1-4)GlcNAc,2.01
same,glycan array binding signal (z-score),[6],-1.25
same,glycan array binding signal (z-score),[7],0.559
same,glycan array binding signal (z-score),[8],-0.11
same,glycan array binding signal (z-score),GalNAc(b1-4)GlcNAc6S,1.59
same,glycan array binding signal (z-score),GalNAc(b1-6)GalNAc,-0.569
same,glycan array binding signal (z-score),GalNAc3S(b1-4)GlcNAc,2.64
same,glycan array binding signal (z-score),GalNAc3S(b1-4)GlcNAc3S,0.305
same,glycan array binding signal (z-score),[9],0.144
same,glycan array binding signal (z-score),GalNAc4S6S(b1-4)GlcNAc,-1.06
same,glycan array binding signal (z-score),GalNAc6S(b1-4)GlcNAc,-0.339
same,glycan array binding signal (z-score),Glc(a1-4)Glc,-0.022
same,glycan array binding signal (z-score),[10],0.391
same,glycan array binding signal (z-score),Glc(a1-6)Glc(a1-6)Glc,-1.06
same,glycan array binding signal (z-score),[11],-1.51
same,glycan array binding signal (z-score),Glc(b1-4)Glc,0.317
same,glycan array binding signal (z-score),Glc(b1-6)Glc,-1.34
same,glycan array binding signal (z-score),GlcA(b1-3)Gal,-0.315
same,glycan array binding signal (z-score),GlcA(b1-3)GlcNAc,1.53
same,glycan array binding signal (z-score),GlcA(b1-6)Gal,1.46
same,glycan array binding signal (z-score),[12],1.43
same,glycan array binding signal (z-score),[13],-1.9
same,glycan array binding signal (z-score),[14],-0.493
same,glycan array binding signal (z-score),[15],0.785
same,glycan array binding signal (z-score),[16],1.8
same,glycan array binding signal (z-score),[17],0.482
same,glycan array binding signal (z-score),[18],-1.14
same,glycan array binding signal (z-score),[19],-0.003
same,glycan array binding signal (z-score),[20],-0.612
same,glycan array binding signal (z-score),[21],1.22

# An excerpt of these results, with bars between the fields:
binder | measurement | setting | value
B1 | glycan array binding signal (z-score) | [10] | 0.391
same | glycan array binding signal (z-score) | Glc(a1-6)Glc(a1-6)Glc | -1.06
same | glycan array binding signal (z-score) | [11] | -1.51
same | glycan array binding signal (z-score) | Glc(b1-4)Glc | 0.317
same | glycan array binding signal (z-score) | Glc(b1-6)Glc | -1.34
same | glycan array binding signal (z-score) | GlcA(b1-3)Gal | -0.315
same | glycan array binding signal (z-score) | GlcA(b1-3)GlcNAc | 1.53
same | glycan array binding signal (z-score) | GlcA(b1-6)Gal | 1.46
same | glycan array binding signal (z-score) | [12] | 1.43
same | glycan array binding signal (z-score) | [13] | -1.9
